Results reported in PubChem BioAssay AID2551 (National Center for Advancing Translational Sciences (NCATS), 2010).
The campaign covered roughly 310,000 compounds. About 17,000 (5.5%) were called active. The shares of active, inactive and inconclusive entries below differ from those in the screen. Calls come from the whole dose curve; as a rule, active = well fitted inhibition curve with a large enough effect; inconclusive = small, poorly fitted or top-dose-only effect, or effect the other way; inactive = no such curve, though single readings can be large or run the other way. A potency beside an inconclusive call is a rough fit, not a confirmed value.

Sequences of proteins named here, by UniProt entry; tags and fusion partners are left off. A change or cut given only in a name is not applied to a line headed by its entry.
UniProt P51450: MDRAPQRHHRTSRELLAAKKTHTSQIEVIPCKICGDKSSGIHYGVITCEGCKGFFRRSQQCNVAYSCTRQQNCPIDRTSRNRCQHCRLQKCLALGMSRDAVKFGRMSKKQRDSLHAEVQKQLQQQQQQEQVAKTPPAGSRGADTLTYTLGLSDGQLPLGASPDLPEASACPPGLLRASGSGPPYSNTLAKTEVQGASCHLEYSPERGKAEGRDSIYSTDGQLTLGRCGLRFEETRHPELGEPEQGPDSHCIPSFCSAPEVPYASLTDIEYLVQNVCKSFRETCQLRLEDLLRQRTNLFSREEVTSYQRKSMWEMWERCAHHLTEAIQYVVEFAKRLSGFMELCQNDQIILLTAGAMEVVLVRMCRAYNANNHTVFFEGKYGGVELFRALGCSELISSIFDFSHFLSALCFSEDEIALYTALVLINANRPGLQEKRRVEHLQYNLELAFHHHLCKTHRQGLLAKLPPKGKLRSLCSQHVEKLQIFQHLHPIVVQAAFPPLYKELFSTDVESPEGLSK

biological target: Nuclear receptor ROR-gamma (Mus musculus) (UniProt P51450); assay: qHTS for inhibitors of ROR gamma transcriptional activity; conditions: Drosophila S2 Gal4-RORgamma UAS-luciferase reporter, 20 h; series mostly up to 53.6 µM; note: nearly all actives have a fitted effect of over 60% in size
In short: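 Stable Schneider cell line, Gal4 DNA-binding domain fused to ROR gamma, UAS-luciferase. Cmpd 1 hr RT → CuSO4 700 uM final → 20 hr RT → luciferase reagent 10 min → luminescence.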
Potency is the fitted concentration of half-maximal effect.

Row | SMILES | Potency
1 | CCCCCc1ccc(OCCCC[n+]2ccc(C)cc2)c(CCCCC)c1 | active: 2 µM
2 | COc1ccccc1Nc1nc(-c2cccnc2)cs1 | inconclusive: 10 µM [activator, partial curve]
3 | O=[N+]([O-])c1ccc(Oc2cccc3cccnc23)c([N+](=O)[O-])c1 | active: 8.91 µM
4 | COC(=O)c1cc(-c2c(C)oc3cc(OC(C)C)ccc3c2=O)c(C)o1 | inconclusive: 20 µM [activator, single point]
5 | COc1ccccc1-c1cc(C(F)(F)F)nc(S(=O)(=O)CCCC(=O)N2CCCCC2C)n1 (centres undefined) | active: 11.2 µM
6 | OC[C@@H]1OC(O)[C@@H](O)[C@H](O)[C@H]1O (some centres undefined) | inactive
7 | COc1ccc(CCNC(=O)Cn2c(=O)n(-c3ccc(F)cc3F)c(=O)c3sccc32)cc1OC | inactive
8 | CCN(CC)S(=O)(=O)c1ccc(Cl)c(NC(=O)COC(=O)c2ccc(O)cc2)c1 | inactive
9 | Cc1ccc(NC(=O)C(C)c2ccc([N+](=O)[O-])cc2)cc1Cl (centres undefined) | inconclusive: 22.4 µM [activator, single point]
10 | N#Cc1ccc(/C=C/C(=O)c2ccco2)cc1 | inconclusive: 12.6 µM [inhibitor, single point]
11 | O=c1n(-c2ccccc2)c(=O)n2n1CC(O)C2 | inactive
12 | CCC1Sc2ccc(S(=O)(=O)CCC(=O)NC3CCCCCC3)cc2NC1=O (centres undefined) | inconclusive: 15.8 µM [activator, single point]
13 | O=S(=O)(NCCc1ccccc1)c1ccc(F)cc1 | inactive
14 | COc1cc(NC(=S)NC(=O)c2ccc(C(C)(C)C)cc2)ccc1NC(=O)c1cccs1 | active: 3.16 µM
15 | CCOc1ccc(NC(=O)c2sc3nc(C)nc(N4CCOCC4)c3c2C)cc1 | inconclusive: 35.5 µM [inhibitor, single point]
16 | COc1cc(C(=O)OCc2ccc(C)cc2)cc(NC(=O)c2cccs2)c1OC | inconclusive: 0.631 µM [activator, full curve]
17 | CC1CCCN(c2ccc3nncn3n2)C1 (centres undefined) | inactive
18 | Cc1nnc(SCCCN2C(=O)c3ccccc3C2=O)o1 | inactive
19 | CCSc1nnc(NC(=O)C2CC2c2ccccc2)s1 (centres undefined) | inconclusive: 17.8 µM [inhibitor, single point]
20 | O=C(N/N=C/c1ccc(Cl)cc1)Nc1ccccc1 | inactive
21 | Cc1ccc(-c2csc(NC(=O)CCNC(=O)c3ccco3)n2)cc1 | inconclusive: 10 µM [activator, partial curve]
22 | CCOc1ccc(/C=C/C(=O)Nc2ccc3[nH]c(=O)[nH]c3c2)cc1 | inactive
23 | CCCc1cc(=O)oc2c3c(cc(OCC(=O)N4CCC[C@H]4C(=O)O)c12)OC(C)(C)CC3 | inactive
24 | NNC(=O)c1cc(Cl)ccc1Cl | active: 11.2 µM
25 | CCCCc1c(O)c2ccccc2[nH]c1=O | inactive

Row | SMILES | Potency
26 | Cc1ccccc1C(=O)Nc1nnc(-c2ccc(F)cc2)o1 | active: 1.26 µM
27 | COc1ccc(/C=C/c2nnc(NC(=O)CSc3ccc(C)cc3)s2)cc1 | inconclusive: 6.31 µM [inhibitor, partial curve, poor fit]
28 | O=C1/C(=C/c2ccccc2)NC(=S)N1C(c1ccccc1)c1ccccc1 | inconclusive: 6.31 µM [inhibitor, single point]
29 | O=C(O)c1ccccc1NCc1ccncc1 | inactive
30 | CC(C)(C)NC(=O)c1cccc(NC(=O)c2ccc3c(c2)C(=O)N(C(C)(C)C)C3=O)c1 | inconclusive: 20 µM [activator, single point]
31 | CCn1cc[n+](C)c1P(c1ccccc1)c1ccccc1 | inconclusive: 8.91 µM [activator, partial curve, poor fit]
32 | COc1ccc(N2CCN(C(=O)CCCNC(=O)Cn3cnc4sc(C)c(C)c4c3=O)CC2)cc1 | inconclusive: 15.8 µM [activator, single point]
33 | COc1ccc(NC(=O)CN(C)C(=O)c2ccc(-c3cccc(C(F)(F)F)c3)o2)cc1 | inconclusive: 2 µM [activator, full curve, poor fit]
34 | Cc1ccccc1OCCCC(=O)Nc1ccc2c(c1)OCO2 | inconclusive: 20 µM [activator, single point]
35 | COc1ccccc1-c1nc(-c2ccc(Br)cc2)no1 | inconclusive: 2 µM [activator, partial curve]
36 | Cc1nc(SCC(=O)c2ccc(F)cc2)c([N+](=O)[O-])[nH]1 | inconclusive: 20 µM [inhibitor, single point]
37 | Cc1ccccc1NC(=S)NCc1ccc2[nH]c3c(c2c1)CCCC3 | active: 1.58 µM
38 | COc1ccc(OCC(=O)Nc2nccs2)cc1 | active: 3.55 µM
39 | O=C(Cc1ccc(Cl)c(Cl)c1)Nc1ccccc1N1CCCC1 | inactive
40 | COc1cc(/C=N\NC(C)=O)ccc1OC/C=C/c1ccccc1 | inconclusive: 0.001 µM [inhibitor, full curve, poor fit]
41 | Cc1ccc(CCN2CC(C(=O)NCc3ccc4c(c3)OCO4)CC2=O)cc1 (centres undefined) | inactive
42 | Cc1cc2oc3c(c(=O)c2cc1C)C(c1ccc(F)cc1)N(CCCN1CCOCC1)C3=O (centres undefined) | inconclusive: 10 µM [activator, partial curve]
43 | COC(=O)c1ccc2[nH]c3cccc(/C(=C/c4ccccc4)c4ccccc4)c3c2c1 | inconclusive: 35.5 µM [inhibitor, single point]
44 | O=C(/C(N=Nc1cccc([N+](=O)[O-])c1)=C(/O)c1ccc(Br)cc1)C(F)(F)F | active: 7.94 µM
45 | Cc1ccc(-n2ncc(-c3nnc(SCC(=O)NC4CCCC4)o3)c2N)cc1C | inconclusive: 10 µM [activator, partial curve]
46 | Cc1ccc(S(=O)(=O)c2ccccc2)cc1S | inconclusive: 35.5 µM [inhibitor, single point]
47 | O=C(CSC1=NCCS1)N1CCN(c2ccc(Cl)cc2)CC1 | inconclusive: 35.5 µM [activator, single point]
48 | COc1cccc(CC2(CO)CCCN(Cc3ccccc3Cl)C2)c1 (centres undefined) | inactive
49 | CC(C)c1ccc(/C=N/NC(=O)c2cccc(Cl)c2)cc1 | inconclusive: 11.2 µM [inhibitor, single point]

Gathered by group, the entries above containing bromine
Row | SMILES | Potency
35 | COc1ccccc1-c1nc(-c2ccc(Br)cc2)no1 | inconclusive: 2 µM [activator, partial curve]
44 | O=C(/C(N=Nc1cccc([N+](=O)[O-])c1)=C(/O)c1ccc(Br)cc1)C(F)(F)F | active: 7.94 µM
